Source: the supplement of paper PMC10338343
± gives the standard deviation. Only a part is listed here, and it is no random draw. Many entries were measured with a wide error.

Columns and labels:
[1] = system: MILI (PIWIL2) piRISC loaded with piRNA #1 (26 nt); assay: pre-steady-state target cleavage rate (min^-1); MIWI and MILI are mouse PIWI proteins and EfPiwi is from a freshwater sponge; tags in brackets are library labels; higher = faster piRNA-guided slicing of the target; settings: guide: piRNA #1 5'p-UGAGGUAGUAGGUUGUAUAGUAUCCA; auxiliary factor: 500 nM mouse GTSF1
Summary of the method: (§1)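 For Cleave-'n-Seq, a transcribed, DNA-blocked target RNA library […] met 1 nM active affinity-purified piRISC with one synthetic guide at 33 °C for 0–8 or 0–960 min in HEPES–potassium acetate buffer, with or without 500 nM GTSF1 partner protein. Uncleaved targets were sequenced and normalised to depth and weakly complementary targets, with three trials pooled and k3 capped at 0.0001 min^-1. A burst-and-steady-state fit supplied the pre-steady-state cleavage rate.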

[2] = system: MIWI (PIWIL1) piRISC loaded with piRNA #1 (30 nt); assay: as above; settings: guide: piRNA #1 5'p-UGAGGUAGUAGGUUGUAUAGUAUCCAGAGG; auxiliary factor: 500 nM mouse GTSF1
Summary of the method: as §1
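Further: 1 nM active piRISC with 0.1 nM target library at 33 °C single turnover.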

| Sequence | pre-steady-state target cleavage rate [1] | pre-steady-state target cleavage rate [2] |
| --- | --- | --- |
| GGAGACCUAUGAUUACAACUCUACUACCUCA | 0.000308 ± 0.011 | 0.000114 ± 0.018 |
| GGAGACCUAUGAAUACAACCUACUACGUGA | 0.00188 ± 0.0029 | 0.001 ± 0.0044 |
| GGAGAGGAUACUAUACUAACCUACUACCUCA | 0.0025 ± 0.0043 | 0.00122 ± 0.0074 |
| GGAGACCUAUGAUUACAACCUACUAUCCUCA | 0.00664 ± 0.0027 | 0.00234 ± 0.0033 |
| GGAGACCUAUGAUAUGUUGCUACGUACCUCA | 0.000563 ± 0.011 | 0.000314 ± 0.015 |
| GGAGACCUAUGAUAUGUUGCAUCUACCUCA | 0.0003 ± 0.016 | 0.000389 ± 0.011 |
| GGAGACCAUACUAUACAACCCUACUACCUCA | 0.00216 ± 0.0042 | 0.000744 ± 0.0065 |
| GGAGACCUAUGAAUACAACCUACUAGCUCA | 0.00444 ± 0.0022 | 0.000438 ± 0.0049 |
| GGAGAGGAUACUAUACAACCUACUUGGAGA [g7:g25:cont:t1A] | 0.001 ± 0.0059 | 0.00122 ± 0.0059 |
| GGAGACCUUACUAUACAACCUCUACCUCA | 0.00247 ± 0.0027 | 0.0014 ± 0.0044 |
| GGAGACCUAUGAUAUGUUCCUACUACCCA | 0.000113 ± 0.019 | 0.000132 ± 0.013 |
| GGAGACCUAUCUAUACAACCAUGUACCUCA | 0.00233 ± 0.0036 | 0.000502 ± 0.01 |
| GGAGACCUUACUAUACAUGGAUGAUGGAGA [g14:g22:cont:t1A] | 0.000214 ± 0.021 | 0.000269 ± 0.015 |
| GGAGACCUUACUAUACUUGGAUGAUGGAGA [g15:g22:cont:t1A] | 0.000365 ± 0.016 | 0.000397 ± 0.017 |
| GGAGACCUAUGAUAUCAACCUACUACUUCA | 0.00116 ± 0.0041 | 0.000326 ± 0.0051 |
| GGAGACCUAUGAAUACAACCUACUACUCA | 0.00146 ± 0.0041 | 0.000293 ± 0.0084 |
| GGAGACCUAUGAUUAAACCUACUACCUCA | 0.00118 ± 0.0053 | 0.000137 ± 0.024 |
| GGAGACCUAUGAUAUCAACCUACAUACCUCA | 0.00233 ± 0.0028 | 0.000191 ± 0.0093 |
| GGAGACCUAUGAUUACAACCUACUACGUGA | 0.00102 ± 0.0049 | 0.000793 ± 0.0059 |
| GGAGACCUAUGUAUACACACCUACUACCUCA | 0.000819 ± 0.0088 | 0.000886 ± 0.0057 |
| GGAGACCUAUGAUAUCAACCAACUUCCUCA | 0.000442 ± 0.011 | 0.000251 ± 0.011 |
| GGAGACCUAUGAUAUCAACCUACUACCGCA | 0.00141 ± 0.0051 | 0.000283 ± 0.011 |
| GGAGACCUAACUAAUGAACCUACUACCUCA | 0.00355 ± 0.0039 | 0.000177 ± 0.028 |
| GGAGACCUAACUUAUACAACCUACUACCUCA | 0.0771 ± 0.019 | 0.23 ± 0.041 |
| GGAGACCUAUGAUAUCAACCUACUCCCUCA | 0.00178 ± 0.0038 | 0.000542 ± 0.0078 |
| GGAGACCUAUGAUAUGUUCCUACUACCUCC [g2:g12:cont:t1C] | 0.00013 ± 0.021 | 0.000188 ± 0.011 |
| GGAGACCUAUGUAUACAACCUUCUAGCUCA | 0.00145 ± 0.0058 | 0.0027 ± 0.0034 |

Single records (already shown):
GGAGACCUAUGAUUACAACCUACUACGUGA is entered as pre-steady-state target cleavage rate [1]: 0.00102 ± 0.0049; pre-steady-state target cleavage rate [2]: 0.000793 ± 0.0059
GGAGACCUAACUAAUGAACCUACUACCUCA is entered as pre-steady-state target cleavage rate [1]: 0.00355 ± 0.0039; pre-steady-state target cleavage rate [2]: 0.000177 ± 0.028

Following part.

| Sequence | pre-steady-state target cleavage rate [1] | pre-steady-state target cleavage rate [2] |
| --- | --- | --- |
| GGAGACCUAUGAUAUGUAGCUACAACCUCA | 0.000345 ± 0.014 | 0.000111 ± 0.024 |
| GGAGACCUAUCUAUACAAUCCUACUACCUCA | 0.00102 ± 0.0064 | 0.000603 ± 0.0085 |
| GGAGACCUAACUAUACCAACCUACUACCUCA | 0.00183 ± 0.0098 | 0.000957 ± 0.012 |
| GGAGACCUAACUAUACAAGGAACUACCUCA | 0.00395 ± 0.0051 | 0.000571 ± 0.0098 |
| GGAGACCUAUGAUAACAACCUACUCCCUCA | 0.00249 ± 0.0033 | 0.000344 ± 0.0073 |
| GGAGACCUAUGAUUACACCUACUACCUCA | 0.000835 ± 0.0075 | 0.000695 ± 0.0053 |
| GGAGACCUAUGAAUUCAACCUUCUACCUCA | 0.000605 ± 0.006 | 0.000298 ± 0.0079 |
| GGAGACCUAUGAUAUGUUGGUACUACCUUCA | 0.000301 ± 0.011 | 0.000442 ± 0.0074 |
| GGAGACCUAUGUAUACAACCUUCUACCUGA | 0.000876 ± 0.0062 | 0.00204 ± 0.0035 |
| GGAGACCUAUGAUAUCAACCUAGUUCCUCA | 0.00018 ± 0.015 | 0.000151 ± 0.013 |
| GGAGACCAUACUAUACAAUCCUACUACCUCA | 0.0015 ± 0.0071 | 0.00057 ± 0.014 |
| GGAGACCUAUGAUAACAACCUACUACCCA | 0.000213 ± 0.012 | 0.000254 ± 0.012 |
| GGAGACCUAUGAUAUCAACCUACUACCGUCA | 0.0019 ± 0.0046 | 0.00018 ± 0.025 |
| GGAGACCUAUGAAUACAACCUACAACGUCA | 0.00132 ± 0.0048 | 0.000209 ± 0.01 |
| GGAGACCUAUGUAUACAACCUACUCCUCA | 0.00139 ± 0.0039 | 0.000509 ± 0.0072 |
| GGAGACCUAUGAUAUCAACCUACUACCAUCA | 0.001 ± 0.0066 | 0.000177 ± 0.011 |
| GGAGACCUAUGAUAACAACCUUCUACCACA | 0.00111 ± 0.0052 | 0.000268 ± 0.007 |
| GGAGACCAUACUAUACAAACCUACUACCUCA | 0.0045 ± 0.003 | 0.00279 ± 0.0032 |
| GGAGACCUAUGAUAUCAACCUGCUACCUCA | 0.00081 ± 0.0064 | 0.000222 ± 0.013 |
| GGAGACCUAUGUAUACAACCAUGUACCUCA | 0.00173 ± 0.0035 | 0.000336 ± 0.0051 |
| GGAGACGAUACUAUACAACGAUCUACCUCA | 0.0015 ± 0.0044 | 0.00152 ± 0.0048 |
| GGAGACCUAUGAAUAGCAACCUACUACCUCA | 0.00225 ± 0.0038 | 0.000245 ± 0.013 |
| GGAGUGGAUACUAUACAACCUAGUUCCUCA | 0.000511 ± 0.0061 | 0.00152 ± 0.0029 |
| GGAGACCUAUGUAUACAACCAUCUACCUCA | 0.00244 ± 0.0032 | 0.000293 ± 0.0072 |
| GGAGACCUAUGAUAUGUACCACUACCUCA | 0.000202 ± 0.012 | 0.00052 ± 0.0038 |
| GGAGACCUAUGAAUACACACCUACUACCUCA | 0.000975 ± 0.0076 | 0.000738 ± 0.0086 |
